From article PMC12412656
Results are given in words; binding and its absence hold for the method and conditions named. For some of these results: Binding seen in cells or lysates may run through a third protein. Some results given as binding are weak or reduced against the parent protein; the word gives no strength.

By UniProt entry, the sequences of proteins in these tests, tags left out.
UniProt P26039: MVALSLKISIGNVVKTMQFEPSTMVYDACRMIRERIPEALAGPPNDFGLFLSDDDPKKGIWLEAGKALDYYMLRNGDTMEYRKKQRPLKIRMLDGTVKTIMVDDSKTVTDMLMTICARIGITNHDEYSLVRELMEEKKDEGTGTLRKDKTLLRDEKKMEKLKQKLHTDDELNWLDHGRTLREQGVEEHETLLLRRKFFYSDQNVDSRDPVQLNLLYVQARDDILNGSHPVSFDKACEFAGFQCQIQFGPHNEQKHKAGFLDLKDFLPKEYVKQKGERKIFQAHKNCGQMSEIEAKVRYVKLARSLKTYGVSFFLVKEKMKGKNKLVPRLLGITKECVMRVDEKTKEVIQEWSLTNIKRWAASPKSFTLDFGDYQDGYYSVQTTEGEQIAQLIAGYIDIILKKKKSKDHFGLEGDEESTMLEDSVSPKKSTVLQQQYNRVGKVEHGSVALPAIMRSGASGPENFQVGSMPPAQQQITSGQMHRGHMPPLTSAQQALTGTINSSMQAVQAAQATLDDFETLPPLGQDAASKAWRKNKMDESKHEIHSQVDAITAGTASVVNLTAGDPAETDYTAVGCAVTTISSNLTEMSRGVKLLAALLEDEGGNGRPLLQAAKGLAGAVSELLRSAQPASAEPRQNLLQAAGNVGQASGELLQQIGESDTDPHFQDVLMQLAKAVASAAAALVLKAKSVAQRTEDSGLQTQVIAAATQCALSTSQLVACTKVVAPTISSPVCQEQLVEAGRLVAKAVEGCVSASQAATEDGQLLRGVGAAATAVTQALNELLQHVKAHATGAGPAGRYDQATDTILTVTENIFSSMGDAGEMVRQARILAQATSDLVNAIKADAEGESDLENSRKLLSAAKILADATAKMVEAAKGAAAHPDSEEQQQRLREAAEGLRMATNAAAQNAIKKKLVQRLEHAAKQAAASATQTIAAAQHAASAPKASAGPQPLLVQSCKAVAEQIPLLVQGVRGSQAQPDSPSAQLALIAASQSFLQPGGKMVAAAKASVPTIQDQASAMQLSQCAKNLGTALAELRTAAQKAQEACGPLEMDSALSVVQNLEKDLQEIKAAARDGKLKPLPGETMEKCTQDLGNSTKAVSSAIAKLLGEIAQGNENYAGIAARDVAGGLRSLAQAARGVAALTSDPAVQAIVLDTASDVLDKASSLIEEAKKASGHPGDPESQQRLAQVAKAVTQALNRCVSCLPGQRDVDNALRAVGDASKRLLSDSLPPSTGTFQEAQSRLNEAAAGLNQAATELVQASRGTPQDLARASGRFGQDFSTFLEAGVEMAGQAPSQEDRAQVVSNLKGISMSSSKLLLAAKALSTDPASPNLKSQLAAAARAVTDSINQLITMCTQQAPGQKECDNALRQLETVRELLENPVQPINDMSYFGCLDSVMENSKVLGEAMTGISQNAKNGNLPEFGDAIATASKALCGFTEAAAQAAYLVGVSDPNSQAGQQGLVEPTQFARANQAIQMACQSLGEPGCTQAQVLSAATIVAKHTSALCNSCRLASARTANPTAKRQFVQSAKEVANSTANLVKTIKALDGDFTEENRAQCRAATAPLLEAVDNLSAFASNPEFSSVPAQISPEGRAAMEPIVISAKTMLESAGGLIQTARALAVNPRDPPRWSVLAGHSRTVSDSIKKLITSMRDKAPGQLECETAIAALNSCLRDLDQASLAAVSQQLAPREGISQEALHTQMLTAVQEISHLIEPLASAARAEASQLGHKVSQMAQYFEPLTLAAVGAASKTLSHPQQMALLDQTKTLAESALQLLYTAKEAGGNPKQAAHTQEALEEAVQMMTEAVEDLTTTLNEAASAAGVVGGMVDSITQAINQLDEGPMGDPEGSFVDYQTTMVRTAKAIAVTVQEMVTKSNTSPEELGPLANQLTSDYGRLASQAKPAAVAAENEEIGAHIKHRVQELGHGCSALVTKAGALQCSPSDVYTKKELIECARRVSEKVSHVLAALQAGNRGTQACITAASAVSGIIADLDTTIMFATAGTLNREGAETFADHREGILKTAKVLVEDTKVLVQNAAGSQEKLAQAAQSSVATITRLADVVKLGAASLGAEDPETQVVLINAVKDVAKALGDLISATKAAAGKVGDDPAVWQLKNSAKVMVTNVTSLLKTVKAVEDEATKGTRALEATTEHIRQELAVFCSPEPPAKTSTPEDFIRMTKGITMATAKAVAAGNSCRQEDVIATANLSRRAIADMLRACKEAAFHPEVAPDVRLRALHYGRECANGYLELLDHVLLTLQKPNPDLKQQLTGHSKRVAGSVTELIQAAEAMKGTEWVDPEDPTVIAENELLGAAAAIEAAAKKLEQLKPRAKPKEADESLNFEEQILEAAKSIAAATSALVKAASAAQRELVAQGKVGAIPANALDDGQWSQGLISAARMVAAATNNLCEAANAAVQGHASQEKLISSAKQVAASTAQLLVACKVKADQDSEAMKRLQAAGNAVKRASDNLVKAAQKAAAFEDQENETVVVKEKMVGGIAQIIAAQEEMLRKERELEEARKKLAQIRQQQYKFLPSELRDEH

T1: DLC1 TBS (465-489C) synthetic peptide, fluorescein-labelled
T1 sequence (peptide, fluorescein coupled via the terminal (C-terminal, non-native) cysteine): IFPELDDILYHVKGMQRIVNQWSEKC


How the values were obtained:
[1] = target: T1, DLC1 TBS (465-489C) synthetic peptide, fluorescein-labelled; experiment: fluorescence polarisation; negative control without R7R8: uncomplexed DLC1 TBS-F titrated with unlabeled RIAM TBS1 (up to 160 μM); both purified
[2] = target: talin 1, endogenous, mouse heart sections (mouse (endogenous in heart sections)) (UniProt P26039); experiment: proximity ligation; in situ Duolink PLA on heart sections of MLP knockout mice and WT controls; antibody pairs DLC1 (mouse)/talin 1 (rabbit) and RIAM (rabbit)/talin 1 (mouse)
[3] = target: talin 1, endogenous, mouse heart sections (mouse (endogenous in heart sections)) (UniProt P26039); experiment: condition: only in WT hearts (interaction seen in MLP knockout hearts); proximity ligation; in situ Duolink PLA on heart sections of WT mice only; antibody pair RIAM (rabbit)/talin 1 (mouse)

binding [1]	binding [2]	binding [3]	Binder
no binding (tested: 160 μM)			SEDIDQMFSTLLGEMDLLTQSLGVDTC [RIAM TBS1 (4-30C) synthetic peptide, unlabeled]
	binds	no binding	RIAM, endogenous, mouse heart sections (protein, UniProt Q8R5A3 1-670) MGESNEDIDQMFSTLLGEMDLLTQSLGVDTLPPPDPNPPREEFNYTVGFKDLNESLNALEDQDLDALMADLVADISEAEQRTIQAQKESSQNQDRFALLRASDGQGTASGGYGASAAAIDVSHHEEALPPPPVEPMLDLLPPPPPPPPPELLSKEEEEAKAKADKIKLALEKLKEAKVKKLVVKVHMDDSSTKSLMVDERQLARDVLDNLFEKTHCDCNVDWCLYEIYPELQIERVFEDHENVVEVLSDWTRDTENKVLFLEKEERYAVFKNPQNFYLDNKGKKENKETNEKMNAKNKEYLLEESFCGTSIIVPELEGALYLKEDGKKSWKRRYFLLRASGIYYVPKGKTKTSRDLACFIQFENVNIYYGIQCKMKYKAPTDHCFVLKHPQIQKESQYIKYLCCDDARTLSQWVMGIRIAKYGKTLYDNYQRAVARAGLASRWTNLGTVGTPMPAQPSTVSSGLKTGTSQPNGQMPQAIPSAGPPLQEAQTQIETTKDEKQGLGNHSPGATRENHRPKSSLPPPPPPVRRSSDTCGSPALPSKVKGPGTCTFPHPPENFLPPPPPPPPEEDNSGLLPPPPPPPYLEEPPDFVPPPPPPAAVEDSALPPPPPPPPCLSQEITKSSPLPPKKPLVPPKRQENQGLPGAPGNSEQDFMSDLMKALQKKRGNIP
	binds		DLC1, endogenous, mouse heart sections (protein, UniProt Q9R0Z9 1-1092) MCRDEPDTMILTQIEAKEACDWLRVTGFPQYAQLYEDLLFPVDIALVKREHDFLDRDAIEALCRRLNTLNKCAVMKLEISPHRKRSEDSDEDEPCAISGKWTFQRDSKRWSRLEEFDVFFPKQDPIPGSPDNSRLQSATSHESMLTDLSEHQEVASVRSLSSTSSSVPTHAAHSGDATTPRTNSVISVCSSGHFVGNDDSFSSLPSPKELSSFSFSMKGHHEKNTKSKTRSLLKRMESLKLKGSHHSKHKAPSKLGLIISAPILQEGMDEAKLKQLNCVEISALNGNHINVPMVRKRSVSNSTQTSSSSSQSETSSAVSTPSPVTRTRSLSTCNKRVGMYLEGFDPFSQSTLNNVTEQNYKNRESYPEDTVFYIPEDHKPGTFPKALSHGSFCPSGNSSVNWRTGSFHGPGHLSLRRENSHDSPKELKRRNSSSSLSSRLSIYDNVPGSILYSSSGELADLENEDIFPELDDILYHVKGMQRIVNQWSEKFSDEGDSDSALDSVSPCPSSPKQIHLDVDHDRRTPSDLDSTGNSLNEPEEPTDIPERRDSGVGASLTRCNRHRLRWHSFQSSHRPSLNSVSLQINCQSVAQMNLLQKYSLLKLTALLEKYTPSNKHGFSWAVPKFMKRIKVPDYKDRSVFGVPLTVNVQRSGQPLPQSIQQAMRYLRNHCLDQVGLFRKSGVKSRIQALRQMNESAEDNVNYEGQSAYDVADMLKQYFRDLPEPLMTNKLSETFLQIYQYVPKDQRLQAIKAAIMLLPDENREVLQTLLYFLSDVTAAVKENQMTPTNLAVCLAPSLFHLNTLKRENSSPRVMQRKQSLGKPDQKDLNENLAATQGLAHMIAECKKLFQVPEEMSRCRNSYTEQELKPLTLEALGHLNSDQPADYRHFLQDCVDGLFKEVKEKFKGWVSYPTSEQADLSYKKVSEGPPLRLWRSTIEVPAAPEEILKRLLKEQHLWDVDLLDSKVIEILDSQTEIYQYVQNSMAPHPARDYVVLRTWRTNLPRGACALLLTSVDHDRAPVAGVRVNVLLSRYLIEPCGSGKSKLTYMCRADLRGHMPEWYSKSFGHLCAAEVVKIRDSFSNQNTESKDTRSR
